This is an account of results in PubChem BioAssay AID2685 (National Center for Advancing Translational Sciences (NCATS), 2010).

“And” between values parts separate entries of the source, which are not always exact repeats. Equal values may be shown once. The list shows a part of the results. These are further read-outs of the screen, such as a control signal, another cell line or another target. No call is given for them. Compounds called inactive in the main read-out are mostly missing here. Potencies come from curve fits of mixed quality, noted in brackets.

The test in a line: qHTS Assay for Lipid Storage Modulators in Drosophila S3 Cells.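 For cell number change: cells counted by Cell Tracker Red CMTPX staining in the red channel.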 As to conditions: BODIPY lipid droplet fluorescence, 18-24 h; for cell number change: measured here: cell count max response, cells fed with added oleic acid. The procedure, abridged: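 Drosophila S3 cells got compounds at several concentrations plus oleic acid (400 uM solution). Laser-scanning cytometry with 488 nm excitation read lipid droplets at 500-530 nm and cells at 575-640 nm. Percent activity was relative to 20 uM Triacsin C.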

Setting [1] is: measured here: lipid fluorescence (Fed channel) AC50, cells fed with added oleic acid.
Where [2] appears, read: measured here: cell number channel AC50, cells fed with added oleic acid.

As a reminder, the AC50 is the concentration giving half of the maximal activity seen. Lower therefore signals activity at low concentration.

As for `C[N+]12CCC(CC1)C(C(O)(c1ccccc1)c1cccs1)C2` (stereo not drawn), the cell number change is -17.7%. The AC50 under setting [1] is 0.731 µM [falling, full curve].
As to `COC(=O)C1=C(c2cccc(OCc3ccccc3)c2)C[C@@H]2CC[C@H]1N2C(=O)NCc1ccccc1`, the cell number change was determined as 4.11%. The AC50 under setting [1] was 29.1 µM [falling, single point].
As to `COC(=O)C1=C(c2ccc(C(C)=O)cc2)C[C@@H]2CC[C@H]1N2C(=O)NCCNC(C)=O`, the cell number change was -2.7%. Moreover, the half-maximal activity concentration (AC50) under setting [2] is 0.164 µM [falling, full curve, poor fit]. The AC50 under setting [1] is 3.26 µM [rising, partial curve, poor fit].
In the case of `c1ccc(Nc2ccc(Nc3ccccc3)cc2)cc1`, the cell number change is -16.5%. In addition, the AC50 under setting [2] is 0.326 µM [falling, partial curve, poor fit]. The AC50 under setting [1] is 0.116 µM [rising, single point].
As for `O=c1[nH]c(Cl)ccc1CN1CCOCC1`, the cell number change was -1.97%. In addition, the AC50 under setting [1] was 10.3 µM [rising, partial curve].
Take `Nc1ccc([N+](=O)[O-])cc1`: the cell number change was -6.44%. In addition, the AC50 under setting [1] is 0.206 µM [rising, full curve, poor fit].
As to `O=P(OCC(F)(F)C(F)F)(N1CCOCC1)N1CCOCC1`, the cell number change worked out at 8.55%. Further, under setting [1], the AC50 was 3.66 µM [falling, partial curve, poor fit].
With `COC(=O)c1cccc(NC(=O)N2C[C@H]3C[C@@H](C2)c2cccc(=O)n2C3)c1`, the cell number change is -9.12%.
As to `FCCN(CCF)c1cccc(Cl)c1`, the cell number change was 11%. Moreover, the concentration at half-maximal activity (AC50) under setting [2] was 3.66 µM [rising, single point].
`O=C(CCC(=O)N1C[C@H]2C[C@@H](C1)c1cccc(=O)n1C2)NCc1ccccc1C(F)(F)F`: under setting [1], the AC50 is 14.6 µM [rising, partial curve, poor fit].
Regarding `CCOc1cccc(OCC)c2c(C)[n+](CC3CCCO3)c(C)c1-2` (stereo not drawn), the cell number change worked out at 8.75%. The AC50 under setting [1] is 23.1 µM [falling, partial curve].
As for `COc1cccc(N2CCN(S(=O)(=O)c3ccc4c(c3)oc(=O)n4C)CC2)c1`, the AC50 under setting [2] was 29.1 µM [rising, single point].
On to `CCc1ccc(NP(=O)(Oc2ccccc2F)Oc2ccccc2F)cc1`, for which the cell number change is -4.04%. For the same compound, the AC50 under setting [1] was 6.51 µM [rising, single point].
Take `Cc1cccc(NC(=O)N2CC3CC(C2)c2cccc(=O)n2C3)c1` (stereo not drawn): the cell number change is -0.289%.
In the case of `COC(=O)C1=C(c2cccc(C#N)c2)C[C@@H]2CC[C@H]1N2C(=O)NCCOc1ccc(OC)cc1`, the cell number change is -32.3%. Also, the AC50 under setting [2] is 6.51 µM [falling, partial curve]. Besides, under setting [1], the AC50 was 9.2 µM [falling, partial curve, poor fit].
Take `CN(C)c1ccc(-[n+]2c(-c3ccccc3)cc(-c3ccccc3)cc2-c2ccccc2)cc1`: the cell number change is -9.19%. Further, the AC50 under setting [1] was 1.16 µM [falling, partial curve].
Take `CC(=O)c1ccc2c(c1)C1C(Cl)C(Sc3ccccc3[N+](=O)[O-])CC1C(C(=O)O)N2` (stereo not drawn): the cell number change came out at 25.8%.
As for `COC(=O)C1=C(c2ccc(Cl)c(C(F)(F)F)c2)C[C@@H]2CC[C@H]1N2C(=O)N1CCC(C)CC1`, the cell number change was -52.8%. In addition, the AC50 under setting [2] was 18.4 µM [falling, single point]. Further, the AC50 under setting [1] is 0.82 µM [rising, single point].
For `COC(=O)CN1C(=O)CN=C(c2ccccc2Cl)c2cc(Br)ccc21`, the cell number change is 22.3%. The AC50 under setting [2] is 0.291 µM [rising, full curve, poor fit]. For the same compound, the half-maximal activity concentration (AC50) under setting [1] was 0.116 µM [rising, full curve, poor fit].
In the case of `CNP1(NC)=Nc2nn(-c3ccccc3)c(N)c2C(c2ccccc2)=N1`, the cell number change came to 15.4%. Also, the AC50 under setting [2] was 0.291 µM [rising, full curve, poor fit]. Further, the AC50 under setting [1] was 20.6 µM [rising, single point].
Take `CN1CCC2(CC1)C(C#N)=C(N)NC(S)=C2C#N`: the cell number change is -39.6% and 15.4%. Under setting [2], the AC50 is 18.4 µM [falling, partial curve]. Further, the AC50 under setting [1] was 16.4 µM [falling, partial curve].
On to `CNCCc1c(C)n[nH]c1C`, for which the cell number change worked out at 4.05%.
`CC12CN3CCN(CC(C3)C1O)C2` (stereo not drawn): the concentration at half-maximal activity (AC50) under setting [1] is 6.51 µM [rising, single point].
With `Nc1ccncc1Cl`, the cell number change was -34.7%. Also, the AC50 under setting [2] was 20.6 µM [falling, single point].
With `[O-][n+]1onc2c1CCC1N(O)CCC21O` (stereo not drawn), the cell number change was -9.13%. The AC50 under setting [1] is 2.91 µM [falling, full curve].
As to `CCC(C)n1c(C)cc(C(N)=O)c1C` (stereo not drawn), the cell number change was -1.49%.
On the same count and under the same terms, in the case of `Cc1ccc(C(C)C)c(OCC#CCN2CCCC2)c1` it was -15.6%.
On to `Cc1ccc(NP(=O)(Nc2ccc(C)cc2)Oc2ccccc2)cc1`, for which the cell number change came to 33%. The AC50 under setting [2] is 32.6 µM [rising, single point]. The AC50 under setting [1] was 29.1 µM [rising, single point].
In the case of `CC12CC[C@H]3[C@@H](CCC4(O)C[C@H](O)CCC34/C=N/NC(=O)c3ccccc3O)C1(O)CCC2C1=CC(=O)OC1` (stereo partly drawn), the cell number change is -9.38%. The AC50 under setting [1] was 0.651 µM [falling, full curve, poor fit].
With `OCC(Br)CBr` (stereo not drawn), the cell number change amounted to 11.3%. For the same compound, the AC50 under setting [1] was 0.731 µM [falling, single point].
For the compound `COc1cc(C)cc2oc(=O)c(CC(=O)N3C[C@H]4C[C@@H](C3)c3cccc(=O)n3C4)c(C)c12`, the cell number change came to 15.5%.
In the case of `O=[N+]([O-])/C=C1\NCCN1Cc1ccc(Cl)nc1`, the cell number change came out at 1.52%. Also, under setting [1], the AC50 was 23.1 µM [falling, single point].
`COC(=O)C1=C(c2ccc3ccccc3c2)C[C@@H]2CC[C@H]1N2C(=O)N1CCCC1`: the cell number change was -47.9%. Under setting [2], the AC50 is 29.1 µM [falling, single point]. Moreover, under setting [1], the AC50 is 29.1 µM [falling, single point].
Turning to `CN1c2ccc([N+](=O)[O-])cc2CC2(C(=O)NC(=O)NC2=O)C1c1ccccc1` (stereo not drawn), the cell number change is -27.4%.
In the case of `O=C1NC2NC(=O)N([N+](=O)[O-])C2N1` (stereo not drawn), the cell number change was -1.75%. Also, the AC50 under setting [1] was 0.58 µM [falling, single point].
Regarding `CC(=NCCC1=CCCCC1)c1c(O)n(C)c(=O)n(C)c1=O`, the cell number change amounted to 11%. For the same compound, under setting [1], the AC50 was 3.26 µM [rising, full curve, poor fit].
On to `O=[N+]([O-])c1ccc(N2CCNCC2)cc1N1CCCCCC1`, for which the cell number change turned out to be 18.2%.
As for `CC[N+]1(C)CCCC(OC(=O)C(O)(c2ccccc2)c2ccccc2)C1` (stereo not drawn), the cell number change is -3.71%. Further, under setting [1], the AC50 is 0.116 µM [rising, full curve, poor fit].
For `COCCn1c(O)c(/C=N/NC(=O)CSC(=S)N2CCCC2)c(=O)[nH]c1=S`, the cell number change was -8.77%. The AC50 under setting [1] was 3.26 µM [rising, partial curve].
`COC(=O)C1=C(c2ccc(F)cc2OCc2ccccc2)C[C@@H]2CC[C@H]1N2C(=O)NCc1ccc2[nH]ccc2c1`: the cell number change was -43.6%. Under setting [2], the concentration at half-maximal activity (AC50) was 29.1 µM [falling, single point]. Also, under setting [1], the AC50 was 8.2 µM [falling, single point].
With `C#CCN1CCN(c2ccc(F)cc2)CC1`, the cell number change was found to be 3.69%. Besides, the AC50 under setting [1] was 20.6 µM [falling, single point].
Regarding `CN1CCN(c2cn[nH]c(=O)c2Cl)CC1`, the cell number change was -9.02%.
Still for that read-out and setting: in the case of `COc1ccccc1-n1c(-c2ccccc2)nc2ccccc2c1=O` it was -3.56%.
Take `CCN1CCN(CC(=O)c2c(C)n(Cc3ccccc3)c3ccc(OC)cc23)CC1`: the cell number change stood at 36.9%. Besides, the AC50 under setting [2] is 2.06 µM [rising, full curve, poor fit].
Consider `Cc1nc2ccc(N3CCN(C)CC3)cc2nc1C`, for which the AC50 under setting [2] was 0.0058 µM [falling, full curve, poor fit].
Consider `Oc1c(Br)cc(Br)cc1Oc1ccc(Br)cc1Br`, for which the cell number change is -43.3%. Also, the AC50 under setting [2] is 3.66 µM [falling, partial curve]. Moreover, under setting [1], the AC50 is 25.9 µM [falling, single point].
As to `C=CCn1c(O)c(/C(C)=N/N2CCCCCC2)c(=O)[nH]c1=O`, the cell number change turned out to be 37.9%. Also, the AC50 under setting [2] is 20.6 µM [rising, single point]. In addition, the AC50 under setting [1] is 20.6 µM [rising, single point].
As to `Cc1cc(C)n(CCOC(=O)C2C(C=C(Cl)Cl)C2(C)C)n1` (stereo not drawn), the cell number change is -19.6%. Also, the concentration at half-maximal activity (AC50) under setting [1] was 0.058 µM [rising, full curve, poor fit].
With `Cc1ccc(C)c(CN2CCC(n3nnc4cc(F)ccc43)CC2)c1`, the cell number change is -18.8%. In addition, under setting [1], the AC50 was 2.06 µM [falling, full curve].
As to `Cc1cccc(NC(=O)N2CCCC2)c1`, the cell number change stood at 7.32%. Moreover, the concentration at half-maximal activity (AC50) under setting [2] is 2.31 µM [falling, partial curve, poor fit]. For the same compound, under setting [1], the AC50 is 4.61 µM [falling, single point].
For `CCOS(C)(=O)=O`, the cell number change is -20.3%. Moreover, the half-maximal activity concentration (AC50) under setting [1] is 20.6 µM [rising, partial curve, poor fit].
With `COc1ccc(N=Cc2c(O)n(Cc3ccccc3)c(=S)[nH]c2=O)c(OC)c1`, the cell number change is -5.19%.
Take `Cc1cccc(N=Cc2c(O)n(-c3ccccc3C)c(=O)[nH]c2=O)c1`: the cell number change was 131%. Also, under setting [2], the AC50 was 18.4 µM [rising, single point].
Consider `COc1cc(-c2ccc(N)c(OC)c2)ccc1N`, for which the cell number change is 6.14%. Under setting [1], the AC50 was 0.0731 µM [rising, full curve, poor fit].
As to `CCCCn1c(N)c(C(=O)OCC2CCCO2)c2nc3ccccc3nc21` (stereo not drawn), the cell number change is -14.9%. In addition, under setting [1], the AC50 is 0.0517 µM [rising, full curve, poor fit].
For `O=C(COc1ccc(Cl)cc1)N1CCN(C2CCCC2)CC1`, the cell number change was -14.1%.
For the compound `CCCCCCCCN=Cc1c(O)[nH]c(=O)[nH]c1=O`, the AC50 was 0.00651 µM [falling, full curve, poor fit] under setting [2] and 1.16 µM [falling, full curve] under setting [1].
Regarding `C1CCCN(C2CCNCC2)CC1`, the cell number change is 11.4%. Also, the half-maximal activity concentration (AC50) under setting [1] is 29.1 µM [rising, single point].
For the compound `COc1ccc(-n2c(O)c(/C(C)=N/N3CCCCCC3)c(=O)[nH]c2=O)cc1`, the cell number change worked out at 14.7%. Besides, the AC50 under setting [1] is 0.00461 µM [rising, full curve, poor fit].
With `CCc1c(C)nc(N)nc1N1N=C1SCC(=O)OC`, the cell number change was found to be 16.3%. The concentration at half-maximal activity (AC50) under setting [1] was 6.51 µM [falling, single point].
Turning to `COc1ccc(C2SCC(=O)Nc3c2c(=O)[nH]n3C2CCCCC2)cc1` (stereo not drawn), the cell number change was -6.03%. For the same compound, the AC50 under setting [1] is 6.51 µM [falling, single point].
